Experimental data reported in the supplement of paper PMC10849652.
The other results are listed elsewhere or left out.

Sequences of proteins named here, by UniProt entry; tags and fusion partners are left off. A change or cut given only in a name is not applied to a line headed by its entry.
UniProt P09382, whole entry, looked up: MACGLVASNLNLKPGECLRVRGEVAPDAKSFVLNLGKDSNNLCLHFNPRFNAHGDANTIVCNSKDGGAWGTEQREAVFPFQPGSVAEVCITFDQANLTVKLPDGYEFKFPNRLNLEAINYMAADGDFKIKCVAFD
UniProt Q9Y2Q5, whole entry, looked up: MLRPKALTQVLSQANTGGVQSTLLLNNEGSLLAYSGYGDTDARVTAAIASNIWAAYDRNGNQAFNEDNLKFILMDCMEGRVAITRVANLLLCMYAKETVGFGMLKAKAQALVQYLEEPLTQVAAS
UniProt P53671: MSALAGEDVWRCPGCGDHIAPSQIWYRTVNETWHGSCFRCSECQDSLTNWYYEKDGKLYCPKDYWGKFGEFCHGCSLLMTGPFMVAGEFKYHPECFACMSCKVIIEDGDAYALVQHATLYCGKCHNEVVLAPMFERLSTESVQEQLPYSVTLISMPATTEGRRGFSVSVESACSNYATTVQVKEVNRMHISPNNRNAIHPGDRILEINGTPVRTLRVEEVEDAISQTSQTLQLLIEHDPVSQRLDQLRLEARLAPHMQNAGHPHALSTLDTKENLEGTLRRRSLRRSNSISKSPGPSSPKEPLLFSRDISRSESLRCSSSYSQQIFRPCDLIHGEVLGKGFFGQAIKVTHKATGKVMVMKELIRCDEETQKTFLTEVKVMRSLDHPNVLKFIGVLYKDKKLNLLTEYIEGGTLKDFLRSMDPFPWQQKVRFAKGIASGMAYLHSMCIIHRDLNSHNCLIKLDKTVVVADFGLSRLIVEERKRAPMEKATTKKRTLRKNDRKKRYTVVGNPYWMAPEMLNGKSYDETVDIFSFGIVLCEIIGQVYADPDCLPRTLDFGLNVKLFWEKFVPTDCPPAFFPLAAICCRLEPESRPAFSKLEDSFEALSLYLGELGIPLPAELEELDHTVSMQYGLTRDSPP
UniProt Q6ZN17: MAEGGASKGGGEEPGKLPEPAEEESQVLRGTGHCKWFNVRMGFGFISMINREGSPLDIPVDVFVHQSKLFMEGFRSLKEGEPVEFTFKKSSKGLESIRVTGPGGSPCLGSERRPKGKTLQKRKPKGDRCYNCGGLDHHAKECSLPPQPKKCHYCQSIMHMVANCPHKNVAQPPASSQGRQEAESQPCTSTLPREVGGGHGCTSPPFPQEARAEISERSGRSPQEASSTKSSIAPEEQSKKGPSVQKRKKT
UniProt Q9UHA4, whole entry, looked up: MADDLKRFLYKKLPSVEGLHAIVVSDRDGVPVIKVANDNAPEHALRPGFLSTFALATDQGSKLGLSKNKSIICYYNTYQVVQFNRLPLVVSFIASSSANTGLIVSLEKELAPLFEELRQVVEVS
UniProt Q92615, whole entry, looked up: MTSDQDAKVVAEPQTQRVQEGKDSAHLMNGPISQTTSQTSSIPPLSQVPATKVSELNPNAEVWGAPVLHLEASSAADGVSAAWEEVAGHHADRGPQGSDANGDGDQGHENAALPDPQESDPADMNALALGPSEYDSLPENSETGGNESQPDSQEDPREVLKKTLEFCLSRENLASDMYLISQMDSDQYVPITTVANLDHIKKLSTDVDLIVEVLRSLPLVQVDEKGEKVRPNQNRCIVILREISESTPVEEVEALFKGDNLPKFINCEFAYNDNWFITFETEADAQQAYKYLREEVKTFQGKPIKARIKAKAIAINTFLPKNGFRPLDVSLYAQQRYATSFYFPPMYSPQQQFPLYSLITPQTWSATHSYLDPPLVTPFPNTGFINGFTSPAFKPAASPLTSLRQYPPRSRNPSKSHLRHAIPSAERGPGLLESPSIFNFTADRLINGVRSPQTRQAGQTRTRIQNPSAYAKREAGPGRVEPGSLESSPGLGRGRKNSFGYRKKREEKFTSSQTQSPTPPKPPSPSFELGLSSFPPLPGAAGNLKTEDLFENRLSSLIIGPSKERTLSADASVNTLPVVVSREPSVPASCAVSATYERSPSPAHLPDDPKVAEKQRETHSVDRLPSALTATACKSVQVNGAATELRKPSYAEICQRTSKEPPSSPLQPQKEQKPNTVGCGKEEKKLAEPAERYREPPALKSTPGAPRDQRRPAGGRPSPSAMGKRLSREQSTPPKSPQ
UniProt Q14657: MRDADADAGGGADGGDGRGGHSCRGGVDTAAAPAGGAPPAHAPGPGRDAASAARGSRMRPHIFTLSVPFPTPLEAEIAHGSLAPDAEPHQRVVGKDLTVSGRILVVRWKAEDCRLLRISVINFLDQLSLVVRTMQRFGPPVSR
UniProt Q8NF37: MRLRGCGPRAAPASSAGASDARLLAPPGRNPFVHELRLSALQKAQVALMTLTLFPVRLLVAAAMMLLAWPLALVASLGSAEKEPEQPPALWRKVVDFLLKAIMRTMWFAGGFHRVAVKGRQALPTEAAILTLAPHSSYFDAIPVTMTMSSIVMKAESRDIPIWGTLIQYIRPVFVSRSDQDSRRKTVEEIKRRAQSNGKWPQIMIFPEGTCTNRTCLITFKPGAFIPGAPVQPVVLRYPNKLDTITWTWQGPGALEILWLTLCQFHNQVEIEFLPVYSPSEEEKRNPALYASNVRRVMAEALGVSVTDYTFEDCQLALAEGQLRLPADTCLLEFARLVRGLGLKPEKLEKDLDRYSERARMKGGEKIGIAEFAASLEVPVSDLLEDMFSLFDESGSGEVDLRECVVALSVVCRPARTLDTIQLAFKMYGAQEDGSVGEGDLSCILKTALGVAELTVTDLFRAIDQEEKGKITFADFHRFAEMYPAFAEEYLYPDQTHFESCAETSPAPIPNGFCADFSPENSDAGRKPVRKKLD
UniProt Q15031: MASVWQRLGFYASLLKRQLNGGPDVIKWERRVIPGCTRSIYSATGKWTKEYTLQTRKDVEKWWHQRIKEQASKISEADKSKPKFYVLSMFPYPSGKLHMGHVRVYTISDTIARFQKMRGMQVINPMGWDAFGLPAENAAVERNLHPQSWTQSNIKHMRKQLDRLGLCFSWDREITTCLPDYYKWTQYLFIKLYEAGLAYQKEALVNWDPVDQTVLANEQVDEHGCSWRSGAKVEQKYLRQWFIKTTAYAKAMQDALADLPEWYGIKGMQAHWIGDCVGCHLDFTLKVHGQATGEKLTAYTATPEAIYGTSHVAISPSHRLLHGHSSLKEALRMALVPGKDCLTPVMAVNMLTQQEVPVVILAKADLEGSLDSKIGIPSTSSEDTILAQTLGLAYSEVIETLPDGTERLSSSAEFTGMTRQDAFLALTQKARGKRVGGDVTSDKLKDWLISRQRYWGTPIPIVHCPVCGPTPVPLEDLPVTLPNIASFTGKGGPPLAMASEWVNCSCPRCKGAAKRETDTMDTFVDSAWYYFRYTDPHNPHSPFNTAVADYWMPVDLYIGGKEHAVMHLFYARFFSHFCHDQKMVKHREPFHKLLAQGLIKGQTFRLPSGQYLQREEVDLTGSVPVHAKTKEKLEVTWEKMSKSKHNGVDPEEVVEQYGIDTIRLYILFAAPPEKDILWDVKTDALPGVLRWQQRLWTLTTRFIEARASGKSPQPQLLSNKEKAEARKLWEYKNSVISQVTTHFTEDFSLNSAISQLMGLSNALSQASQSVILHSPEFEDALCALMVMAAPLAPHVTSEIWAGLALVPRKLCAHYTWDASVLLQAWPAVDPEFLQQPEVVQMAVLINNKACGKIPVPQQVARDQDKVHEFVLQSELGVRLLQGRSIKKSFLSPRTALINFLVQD
UniProt Q9UGP4: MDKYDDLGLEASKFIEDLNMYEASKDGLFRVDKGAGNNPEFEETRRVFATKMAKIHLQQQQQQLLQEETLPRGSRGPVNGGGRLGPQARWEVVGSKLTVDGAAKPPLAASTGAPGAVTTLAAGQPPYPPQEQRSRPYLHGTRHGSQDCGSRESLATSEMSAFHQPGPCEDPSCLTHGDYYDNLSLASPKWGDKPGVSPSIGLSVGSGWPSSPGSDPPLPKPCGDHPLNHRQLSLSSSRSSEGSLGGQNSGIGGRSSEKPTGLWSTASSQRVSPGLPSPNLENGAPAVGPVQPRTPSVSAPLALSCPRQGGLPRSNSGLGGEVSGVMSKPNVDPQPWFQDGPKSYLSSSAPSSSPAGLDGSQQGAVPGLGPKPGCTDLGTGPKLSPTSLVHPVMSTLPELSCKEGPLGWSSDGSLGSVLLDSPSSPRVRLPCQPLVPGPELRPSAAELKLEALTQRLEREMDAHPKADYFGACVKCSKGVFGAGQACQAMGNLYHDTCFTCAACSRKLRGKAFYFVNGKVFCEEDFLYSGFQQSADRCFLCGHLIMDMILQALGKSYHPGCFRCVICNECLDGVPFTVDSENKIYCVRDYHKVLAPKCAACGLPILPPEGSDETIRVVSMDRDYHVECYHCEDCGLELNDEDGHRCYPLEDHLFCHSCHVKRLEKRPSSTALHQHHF
UniProt Q71RC2, whole entry, looked up: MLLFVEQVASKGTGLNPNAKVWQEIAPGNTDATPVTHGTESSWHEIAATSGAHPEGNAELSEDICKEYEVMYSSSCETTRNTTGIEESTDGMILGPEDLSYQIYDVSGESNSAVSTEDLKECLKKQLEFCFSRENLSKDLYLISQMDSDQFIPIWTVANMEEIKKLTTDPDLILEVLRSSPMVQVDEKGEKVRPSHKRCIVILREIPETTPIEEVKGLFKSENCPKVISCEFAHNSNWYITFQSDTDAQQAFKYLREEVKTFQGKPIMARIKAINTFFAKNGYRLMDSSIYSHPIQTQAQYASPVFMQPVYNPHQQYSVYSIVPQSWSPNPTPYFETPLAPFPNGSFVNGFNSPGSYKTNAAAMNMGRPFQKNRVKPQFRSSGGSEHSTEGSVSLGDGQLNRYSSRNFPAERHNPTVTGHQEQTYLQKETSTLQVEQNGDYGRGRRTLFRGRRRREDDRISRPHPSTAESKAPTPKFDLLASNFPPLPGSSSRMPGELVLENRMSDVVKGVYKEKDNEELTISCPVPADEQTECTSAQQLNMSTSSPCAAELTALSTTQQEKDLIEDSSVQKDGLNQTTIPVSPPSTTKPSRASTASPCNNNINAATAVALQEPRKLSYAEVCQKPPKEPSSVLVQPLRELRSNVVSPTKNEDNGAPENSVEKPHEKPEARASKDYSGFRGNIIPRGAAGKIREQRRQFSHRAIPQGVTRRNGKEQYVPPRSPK
UniProt Q8NC56: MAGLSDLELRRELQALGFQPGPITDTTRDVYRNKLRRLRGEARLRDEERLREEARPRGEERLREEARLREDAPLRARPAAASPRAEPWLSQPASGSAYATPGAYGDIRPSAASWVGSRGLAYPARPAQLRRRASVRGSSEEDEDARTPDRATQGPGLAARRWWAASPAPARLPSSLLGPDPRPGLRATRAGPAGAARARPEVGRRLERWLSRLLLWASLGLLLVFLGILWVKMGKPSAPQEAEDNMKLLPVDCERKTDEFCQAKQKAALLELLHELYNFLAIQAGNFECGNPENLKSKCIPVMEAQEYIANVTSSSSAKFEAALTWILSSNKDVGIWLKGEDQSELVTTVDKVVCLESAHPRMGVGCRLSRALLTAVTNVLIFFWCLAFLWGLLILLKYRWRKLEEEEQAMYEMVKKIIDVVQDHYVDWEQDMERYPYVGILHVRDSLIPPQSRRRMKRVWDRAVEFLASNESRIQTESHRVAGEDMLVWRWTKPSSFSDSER
UniProt Q4G0J3: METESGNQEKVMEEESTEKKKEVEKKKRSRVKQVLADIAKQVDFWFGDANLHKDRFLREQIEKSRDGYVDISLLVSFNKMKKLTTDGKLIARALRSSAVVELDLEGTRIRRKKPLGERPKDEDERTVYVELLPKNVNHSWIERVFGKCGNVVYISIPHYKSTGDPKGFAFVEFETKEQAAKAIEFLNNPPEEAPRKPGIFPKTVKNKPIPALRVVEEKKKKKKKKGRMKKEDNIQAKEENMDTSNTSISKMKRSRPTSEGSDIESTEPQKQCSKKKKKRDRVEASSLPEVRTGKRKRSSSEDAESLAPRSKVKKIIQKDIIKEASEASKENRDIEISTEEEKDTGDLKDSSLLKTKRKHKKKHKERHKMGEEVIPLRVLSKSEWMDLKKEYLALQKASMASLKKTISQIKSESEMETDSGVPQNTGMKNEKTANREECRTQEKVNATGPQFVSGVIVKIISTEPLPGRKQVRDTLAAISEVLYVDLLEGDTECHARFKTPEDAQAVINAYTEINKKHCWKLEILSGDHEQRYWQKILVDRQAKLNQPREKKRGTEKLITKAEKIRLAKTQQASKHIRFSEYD
UniProt O43813, whole entry, looked up: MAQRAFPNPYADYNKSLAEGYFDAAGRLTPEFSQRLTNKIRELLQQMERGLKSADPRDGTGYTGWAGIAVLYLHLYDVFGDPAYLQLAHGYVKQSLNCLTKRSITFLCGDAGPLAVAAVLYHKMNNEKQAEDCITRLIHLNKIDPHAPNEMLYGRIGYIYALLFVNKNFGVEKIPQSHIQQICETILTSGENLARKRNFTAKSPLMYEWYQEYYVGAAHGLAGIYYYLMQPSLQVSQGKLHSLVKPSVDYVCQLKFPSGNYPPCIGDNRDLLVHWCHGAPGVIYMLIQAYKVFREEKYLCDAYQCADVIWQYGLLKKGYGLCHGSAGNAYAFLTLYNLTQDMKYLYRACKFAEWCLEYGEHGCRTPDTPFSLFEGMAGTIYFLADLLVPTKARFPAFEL

Key:
Assay in all cases: log2 fold change, soluble protein after heating vs DMSO (PISA); higher = thermal stabilisation; K562 cells, 10 uM, 30 min; active = over 0.2 and 3.5 SD of the protein, either way, in both replicates (recomputed)
[1] = compound: COC1=CC=C(C=C1)CN2C=CC3=C2C=C(C=C3)C(=O)NO
Summary of the method: (§1)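 Values are thermal stability changes relative to control samples and are taken from duplicates. They are stated as log2 fold changes. Before quantification by TMTpro 16plex LC-MS/MS with equalised channel sums, K562 cells at 2×10^6 cells/mL were treated with 10 μM compound for 30 min, heated in aliquots for 3 min across 48°C-58°C, pooled, extracted in PBS with 0.5% NP-40 at 4°C, and centrifuged at 21,000xg for 90 min to give the soluble supernatant.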

filanesib = compound: CON(C)C(=O)N1N=C(c2cc(F)ccc2F)S[C@@]1(CCCN)c1ccccc1 [filanesib]
Summary of the method: as §1

zotarolimus = compound: CO[C@H]1C[C@@H]2CC[C@@H](C)[C@@](O)(O2)C(=O)C(=O)N2CCCC[C@H]2C(=O)O[C@H]([C@H](C)C[C@@H]2CC[C@H](n3cnnn3)[C@H](OC)C2)CC(=O)[C@H](C)/C=C(\C)[C@@H](O)[C@@H](OC)C(=O)[C@H](C)C[C@H](C)/C=C/C=C/C=C/1C [zotarolimus]
Summary of the method: as §1

idasanutlin = compound: COc1cc(C(=O)O)ccc1NC(=O)[C@@H]1N[C@@H](CC(C)(C)C)[C@](C#N)(c2ccc(Cl)cc2F)[C@H]1c1cccc(Cl)c1F [idasanutlin]
Summary of the method: as §1

alisertib = compound: COc1cc(Nc2ncc3c(n2)-c2ccc(Cl)cc2C(c2c(F)cccc2OC)=NC3)ccc1C(=O)O [alisertib]
Summary of the method: as §1

[2] = compound: COc1cc2nc(-c3cc(F)ccc3O)nc(N[C@@H]3CNC[C@H]3C(C)(C)O)c2cc1OC
Summary of the method: as §1

gefitinib = compound: COc1cc2ncnc(Nc3ccc(F)c(Cl)c3)c2cc1OCCCN1CCOCC1 [gefitinib]
Summary of the method: as §1

[3] = compound: COc1cccc2cc(-c3nc([C@H]4CC[C@H](C(=O)O)CC4)n4ncnc(N)c34)[nH]c12
Summary of the method: as §1

lapatinib = compound: CS(=O)(=O)CCNCc1ccc(-c2ccc3ncnc(Nc4ccc(OCc5cccc(F)c5)c(Cl)c4)c3c2)o1 [lapatinib]
Summary of the method: as §1

pictilisib = compound: CS(=O)(=O)N1CCN(Cc2cc3nc(-c4cccc5[nH]ncc45)nc(N4CCOCC4)c3s2)CC1 [pictilisib]
Summary of the method: as §1

Measured: log2 fold change

LPIN1 isoform 7 (UniProt Q14693)
inactive: [1] -0.079 | filanesib 0.047 | zotarolimus -0.048 | idasanutlin -0.03 | alisertib 0.046 | [2] 0.017 | gefitinib -0.018 | [3] -0.041 | lapatinib -0.101 | pictilisib -0.035

LGALS1 (UniProt P09382)
inactive: [1] 0.014 | filanesib -0.055 | zotarolimus 0.024 | idasanutlin -0.004 | alisertib -0.054 | [2] 0.046 | gefitinib -0.028 | [3] 0.03 | lapatinib -0.035 | pictilisib -0.034

LAMTOR2 (UniProt Q9Y2Q5)
inactive: [1] -0.029 | filanesib -0.075 | zotarolimus -0.062 | idasanutlin 0.077 | alisertib 0.03 | [2] -0.123 | gefitinib 0.061 | [3] -0.127 | lapatinib 0.005 | pictilisib -0.141

LDHA isoform 3 (UniProt P00338)
inactive: [1] 0.005 | filanesib -0.041 | zotarolimus -0.018 | idasanutlin -0.018 | alisertib -0.049 | [2] -0.003 | gefitinib -0.013 | [3] 0.043 | lapatinib -0.007 | pictilisib 0.029

LIMK2 isoform 3 (UniProt P53671)
inactive: [1] 0.029 | filanesib 0.146 | zotarolimus -0.111 | idasanutlin 0.107 | alisertib 0.12 | [2] 0.138 | gefitinib -0.018 | [3] 0.121 | lapatinib -0.346 | pictilisib 0.178

KYAT1 (UniProt Q16773)
inactive: [1] -0.062 | filanesib -0.004 | zotarolimus 0.006 | idasanutlin -0.041 | alisertib 0.039 | [2] 0.018 | gefitinib 0.005 | [3] 0.086 | lapatinib -0.007 | pictilisib -0.01

LMAN2L isoform 2 (UniProt Q9H0V9)
inactive: [1] 0.045 | filanesib -0.11 | zotarolimus -0.004 | idasanutlin -0.043 | alisertib -0.067 | [2] 0.032 | gefitinib 0.002 | [3] 0.018 | lapatinib 0.005 | pictilisib -0.079

LRIG2 (UniProt O94898)
inactive: [1] -0.004 | filanesib 0.074 | zotarolimus -0.075 | idasanutlin 0.064 | alisertib -0.047 | [2] 0.002 | gefitinib -0.001 | [3] 0.044 | lapatinib 0.034 | pictilisib 0.054

LEMD3 (UniProt Q9Y2U8)
inactive: [1] 0.036 | filanesib 0 | zotarolimus 0.107 | idasanutlin -0.023 | alisertib 0.073 | [2] -0.001 | gefitinib -0.013 | [3] 0.069 | lapatinib 0.044 | pictilisib 0.047

LRPAP1 (UniProt P30533)
inactive: [1] -0.076 | filanesib -0.002 | zotarolimus 0.018 | idasanutlin 0.039 | alisertib 0.045 | [2] 0.047 | gefitinib 0.05 | [3] -0.027 | lapatinib 0.01 | pictilisib 0.004

LIN28B (UniProt Q6ZN17)
inactive: [1] -0.04 | filanesib 0.169 | zotarolimus 0.017 | idasanutlin 0.151 | alisertib -0.087 | [2] -0.012 | gefitinib 0.025 | [3] 0.001 | lapatinib 0.043 | pictilisib 0.014

LAMTOR3 (UniProt Q9UHA4)
inactive: [1] 0.029 | filanesib -0.075 | zotarolimus -0.01 | idasanutlin -0.029 | alisertib -0.061 | [2] -0.053 | gefitinib -0.004 | [3] -0.162 | lapatinib -0.005 | pictilisib -0.218

LIMA1 isoform 4 (UniProt Q9UHB6)
inactive: [1] -0.044 | filanesib 0.178 | zotarolimus 0.021 | idasanutlin 0.008 | alisertib -0.028 | [2] 0.171 | gefitinib 0.077 | [3] 0.11 | lapatinib -0.126 | pictilisib -0.1

LARP4B (UniProt Q92615)
inactive: [1] 0.035 | filanesib 0.056 | zotarolimus 0.004 | idasanutlin 0.053 | alisertib -0.054 | [2] -0.108 | gefitinib 0.011 | [3] -0.06 | lapatinib 0.081 | pictilisib -0.009

LRBA, A0A494BZW2
inactive: [1] 0.006 | filanesib -0.136 | zotarolimus -0.127 | idasanutlin -0.207 | alisertib 0.001 | [2] 0.453 | gefitinib -0.026 | [3] 0.046 | lapatinib -0.097 | pictilisib 0.095

LAGE3 (UniProt Q14657)
inactive: [1] -0.083 | filanesib -0.043 | zotarolimus -0.016 | idasanutlin -0.069 | alisertib 0.097 | [2] 0.017 | gefitinib 0.037 | [3] -0.013 | lapatinib -0.047 | pictilisib 0.036

LNPEP (UniProt Q9UIQ6)
inactive: [1] 0.001 | filanesib -0.014 | zotarolimus -0.03 | idasanutlin -0.014 | alisertib -0.01 | [2] 0.016 | gefitinib 0.01 | [3] 0.058 | lapatinib 0.003 | pictilisib 0.04

LPCAT1 (UniProt Q8NF37)
inactive: [1] -0.026 | filanesib -0.107 | zotarolimus 0.01 | idasanutlin -0.055 | alisertib -0.04 | [2] -0.018 | gefitinib 0.039 | [3] 0.093 | lapatinib -0.001 | pictilisib -0.01

LDB1 (UniProt Q86U70)
inactive: [1] -0.057 | filanesib 0.043 | zotarolimus -0.032 | idasanutlin 0 | alisertib -0.111 | [2] -0.044 | gefitinib -0.008 | [3] 0.051 | lapatinib -0.034 | pictilisib 0.024

LARS2 (UniProt Q15031)
inactive: [1] 0.048 | filanesib -0.113 | zotarolimus 0.036 | idasanutlin 0.002 | alisertib -0.015 | [2] 0.012 | gefitinib -0.018 | [3] 0.032 | lapatinib 0.032 | pictilisib 0.023

KYNU (UniProt Q16719)
inactive: [1] 0.013 | filanesib -0.003 | zotarolimus -0.022 | idasanutlin 0.045 | alisertib 0.012 | [2] -0.006 | gefitinib 0.002 | [3] 0.128 | lapatinib 0.006 | pictilisib -0.055

LIMD1 (UniProt Q9UGP4)
inactive: [1] 0.027 | filanesib -0.007 | zotarolimus 0.028 | idasanutlin 0.028 | alisertib -0.059 | [2] 0 | gefitinib -0.078 | [3] -0.01 | lapatinib 0.06 | pictilisib -0.043

LARP4 isoform 4 (UniProt Q71RC2)
inactive: [1] 0.005 | filanesib 0.111 | zotarolimus -0.007 | idasanutlin 0.071 | alisertib -0.045 | [2] -0.159 | gefitinib 0.01 | [3] -0.125 | lapatinib 0.054 | pictilisib -0.068

LEMD2 (UniProt Q8NC56)
inactive: [1] -0.051 | filanesib -0.211 | zotarolimus 0 | idasanutlin -0.008 | alisertib 0.044 | [2] -0.271 | gefitinib 0.061 | [3] 0.047 | lapatinib 0.133 | pictilisib -0.007

Two records picked at random from those above:
LIMD1 (UniProt Q9UGP4)
inactive: [1] 0.027 | filanesib -0.007 | zotarolimus 0.028 | idasanutlin 0.028 | alisertib -0.059 | [2] 0 | gefitinib -0.078 | [3] -0.01 | lapatinib 0.06 | pictilisib -0.043

KYNU (UniProt Q16719)
inactive: [1] 0.013 | filanesib -0.003 | zotarolimus -0.022 | idasanutlin 0.045 | alisertib 0.012 | [2] -0.006 | gefitinib 0.002 | [3] 0.128 | lapatinib 0.006 | pictilisib -0.055

Next part

LIG1 (UniProt P18858)
inactive: [1] 0.103 | filanesib -0.144 | zotarolimus 0.071 | idasanutlin -0.099 | alisertib -0.051 | [2] 0.065 | gefitinib 0.063 | [3] 0.022 | lapatinib -0.032 | pictilisib 0.082

LDLR (UniProt P01130)
inactive: [1] -0.012 | filanesib 0.005 | zotarolimus -0.07 | idasanutlin 0.009 | alisertib 0.073 | [2] -0.017 | gefitinib 0.095 | [3] 0.008 | lapatinib 0.042 | pictilisib 0.078

LBR (UniProt Q14739)
inactive: [1] -0.075 | filanesib -0.065 | zotarolimus -0.008 | idasanutlin -0.196 | alisertib -0.019 | [2] 0.079 | gefitinib 0.034 | [3] 0 | lapatinib -0.081 | pictilisib -0.191

LARP7 isoform 3 (UniProt Q4G0J3)
inactive: filanesib 0.071 | zotarolimus 0.082 | idasanutlin -0.019 | alisertib -0.007 | [2] -0.165 | gefitinib 0.001 | [3] 0.042 | lapatinib 0.082 | pictilisib -0.041
active: [1] -0.258

LANCL1 (UniProt O43813)
inactive: [1] 0.04 | filanesib -0.033 | zotarolimus 0.023 | idasanutlin -0.023 | alisertib -0.025 | [2] 0.03 | gefitinib -0.031 | [3] 0.03 | lapatinib -0.05 | pictilisib 0.008

LENG1 (UniProt Q96BZ8)
inactive: [1] -0.062 | filanesib 0.025 | zotarolimus -0.05 | idasanutlin 0.006 | alisertib -0.108 | [2] 0.036 | gefitinib -0.018 | [3] 0.071 | lapatinib -0.003 | pictilisib 0.032
